Experimental data: PubChem BioAssay AID1671195 (Yale University, 2021)
Assay: 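Genes whose knockdown alters LDL uptake in liver cancer cells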 (primary screen). Cells: human Huh7 hepatoma cells. Knock-down reagent: siRNA pool against human genes, 18 nM. Timing: about 2 to 2.5 days of knockdown, then 8 h LDL uptake. Conditions: DiI-labelled LDL at 30 µg/ml for 8 h, in lipoprotein-deficient serum medium. Detection: 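Fluorescent LDL signal imaged in cells, scaled to the plate median, robust z-score for each replicate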. Direction: robust z-score: higher = more LDL uptake after knockdown. Call rule: 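Active when two or more replicates show a robust z-score above 2 or below -2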.
The deposit covers about 22,000 reagents; below is a part drawn at random. About 1,510 of all reagents (6.9%) were called active. 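Active includes knockdowns raising or lowering LDL uptake; positive z-scores mean more uptake, negative mean less.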 Unmarked entries are inactive. The numbers tell different reagents against one gene apart.

gene,reagent,"robust z-score, replicate 1","robust z-score, replicate 2","robust z-score, replicate 3"
ASCL2,1,0.0646,-0.0413,-0.395
LOC440029 (retired record),1,1.62,1.88,0.767
SMPD4,1,2.51 (active),0.987,2.19
PTPN13,1,1.38,0.885,1.16
VIT,1,-0.0219,0.569,-0.0154
WDR47,1,0.949,0.835,0.792
RPL30,1,-1.09,-1.3,-0.634
PALD1,1,-1.39,1.57,0.569
KRT18P16,1,-0.436,0.15,0.274
SRY,1,0.905,0.396,0.456
OR5D13,1,0.288,0.577,0.0209
KLHL14,1,-1.07,-0.874,0.743
STK11,1,0.216,0.318,0.467
DOK7,1,-0.905,-0.441,-0.8
ATP5F1D,1,-0.991,-1.08,-0.976
TMEM135,1,0.0445,-0.195,-0.27
RSPO3,1,-1.25,-1.13,-1.12
PELO,1,-0.985,-0.684,-0.681
GLRX2,1,-1,-1.01,-1.57
LOC389910 (retired record),1,-1.62,-1.87,-1.54
KRTAP5-5,1,0.0291,-1.06,-0.323
DNAJC2,1,0.76,0.686,0.286

As entered above:
RPL30, robust z-score, replicate 2 → -1.3
Under “robust z-score, replicate 3”, WDR47 has 0.792
For “robust z-score, replicate 2”, LOC389910 (retired record) shows -1.87
For “robust z-score, replicate 3”, LOC440029 (retired record) has 0.767

The list goes on:
gene,reagent,"robust z-score, replicate 1","robust z-score, replicate 2","robust z-score, replicate 3"
LOC440731 (retired record),1,0.134,0.0864,0.341
CNTN3,1,0.0172,-0.873,-0.788
SELENOF,1,2.56,-0.593,0.232
PLIN1,1,2.54,0.26,-1.07
CMTM8,1,1.25,0.375,1.16
LOC441110 (retired record),1,-0.523,-0.999,-0.439
SULT1E1,1,-1.38,-1.31,-0.794
WBP11,1,0.849,0.746,1.12
KRT5,1,-0.96,-1.21,-1.19
ZGPAT,1,-0.471,-0.0935,-0.0103
DMRTB1,1,-0.226,-0.315,-0.588
ARL6IP5,1,0.119,-0.322,-0.184
LINC00960,1,0.318,0.567,0.775
TAAR2,1,0.54,0.223,-0.425
GUK1,1,1.25,-0.198,0.348
CADM4,1,-0.275,0.151,0.154
TOMM22,1,0.628,0.256,0.423
LINC02914,1,-1.25,-1.17,-1.25
TCOF1,1,-0.367,-0.0102,-0.69
TPTE2P3,1,0.0189,0.662,0.214
ILF3-DT,1,-1.24,-1.46,-1.28
TRIR,1,-0.846,-1.04,-0.597
FOXRED2,1,-1.57,-1.85,-1.51
LOC121792 (retired record),1,-0.596,-1,-0.519
CDX1,1,-0.827,-0.734,0.178
PALM2AKAP2,1,1.63,0.326,1.25
PALM2AKAP2,2,0.27,-0.914,-0.676
APBB2,1,1.21,0.644,2.82
MIPOL1,1,-0.25,-0.524,0.154
HINT1,1,0.722,0.0862,0.666
LOC440121 (retired record),1,-0.59,-0.816,-0.869
MANF,1,-0.971,-0.797,-2.04
LOC440273 (retired record),1,-0.857,-0.897,-0.705
LINC01107,1,-1.11,-0.291,10.9
MDFIC,1,-3.21 (active),-0.255,-2.53
ZPR1,1,0.799,1.34,1.24
CELF3,1,1.46,1.41,2.02
CRLF3,1,0.402,0.923,1.26
CAPSL,1,0.736,0.135,0.433
ZFPM1,1,0.491,-0.295,-0.124
EDF1,1,-1.91 (active),-1.23,-2.18
APOOL,1,-2.12,-1.55,-1.29
NUBP2,1,-1.22,-0.777,-0.832
STPG2,1,-0.464,-0.739,-0.0465
IMMP2L,1,1.29,0.442,0.593
ADGRG6,1,-1.28,-0.507,-1.5
